No constants are given. Whether binding was seen depends on the method and setting. In cells and extracts the contact can be indirect. Some entries that bind do so weakly or less than the wild type. Where a sequence is shown, tags or fusion partners need not be part of it.

Protein sequences, listed by entry. Tags and fused reporters are not part of them. Residues count along the entry.
UniProt Q9NZQ7, residues 19-290: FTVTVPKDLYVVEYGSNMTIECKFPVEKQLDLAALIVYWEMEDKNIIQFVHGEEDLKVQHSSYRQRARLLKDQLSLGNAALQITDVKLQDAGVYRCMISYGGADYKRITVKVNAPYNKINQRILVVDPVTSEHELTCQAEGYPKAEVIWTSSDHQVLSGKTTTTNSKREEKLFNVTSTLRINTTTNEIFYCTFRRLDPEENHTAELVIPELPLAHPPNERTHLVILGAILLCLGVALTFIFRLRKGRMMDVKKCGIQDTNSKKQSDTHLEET

For one molecule, binding results are on record in paper PMC12573202.

The assay deals with Programmed death-ligand 1 (PD-L1), Flag-tagged (UniProt Q9NZQ7). The assay can be described thus: co-IP; HA-MINDY1 and Flag-PD-L1 transfected into Hep3B and Huh-7 cells for 24 h; lysate supernatant mixed with the specific antibody at 4°C for 12 h, protein A/G agarose beads 2 h, Western blot (Classic Magnetic IP/Co-IP Kit). (In general: A western blot detects proteins with antibodies after separation by electrophoresis.)

B1: Motif interacting with ubiquitin-containing novel DUB family-1 (MINDY1), HA-tagged (enzyme, UniProt Q8N5J2 1-469)
chain: MEYHQPEDPAPGKAGTAEAVIPENHEVLAGPDEHPQDTDARDADGEAREREPADQALLPSQCGDNLESPLPEASSAPPGPTLGTLPEVETIRACSMPQELPQSPRTRQPEPDFYCVKWIPWKGEQTPIITQSTNGPCPLLAIMNILFLQWKVKLPPQKEVITSDELMAHLGNCLLSIKPQEKSEGLQLNFQQNVDDAMTVLPKLATGLDVNVRFTGVSDFEYTPECSVFDLLGIPLYHGWLVDPQSPEAVRAVGKLSYNQLVERIITCKHSSDTNLVTEGLIAEQFLETTAAQLTYHGLCELTAAAKEGELSVFFRNNHFSTMTKHKSHLYLLVTDQGFLQEEQVVWESLHNVDGDSCFCDSDFHLSHSLGKGPGAEGGSGSPETQLQVDQDYLIALSLQQQQPRGPLGLTDLELAQQLQQEEYQQQQAAQPVRMRTRVLSLQGRGATSGRPAGERRQRPKHESDCILL
On to B1, for which the binding entry is on record as “binds”.
